{"sequences": {"note": "By UniProt entry, the sequences of proteins in these tests, tags left out. Where a name states a change or a piece, a line headed by the entry shows the natural chain unless it says otherwise.", "UniProt Q9UH92": "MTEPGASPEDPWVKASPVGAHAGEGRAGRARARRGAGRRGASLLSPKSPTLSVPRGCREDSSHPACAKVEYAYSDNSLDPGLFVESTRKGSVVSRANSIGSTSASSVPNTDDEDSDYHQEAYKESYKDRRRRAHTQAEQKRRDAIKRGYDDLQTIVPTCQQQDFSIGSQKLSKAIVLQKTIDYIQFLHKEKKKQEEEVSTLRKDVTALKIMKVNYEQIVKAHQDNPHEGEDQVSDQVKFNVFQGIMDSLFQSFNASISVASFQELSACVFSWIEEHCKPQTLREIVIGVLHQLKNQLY", "UniProt Q9P2H5": "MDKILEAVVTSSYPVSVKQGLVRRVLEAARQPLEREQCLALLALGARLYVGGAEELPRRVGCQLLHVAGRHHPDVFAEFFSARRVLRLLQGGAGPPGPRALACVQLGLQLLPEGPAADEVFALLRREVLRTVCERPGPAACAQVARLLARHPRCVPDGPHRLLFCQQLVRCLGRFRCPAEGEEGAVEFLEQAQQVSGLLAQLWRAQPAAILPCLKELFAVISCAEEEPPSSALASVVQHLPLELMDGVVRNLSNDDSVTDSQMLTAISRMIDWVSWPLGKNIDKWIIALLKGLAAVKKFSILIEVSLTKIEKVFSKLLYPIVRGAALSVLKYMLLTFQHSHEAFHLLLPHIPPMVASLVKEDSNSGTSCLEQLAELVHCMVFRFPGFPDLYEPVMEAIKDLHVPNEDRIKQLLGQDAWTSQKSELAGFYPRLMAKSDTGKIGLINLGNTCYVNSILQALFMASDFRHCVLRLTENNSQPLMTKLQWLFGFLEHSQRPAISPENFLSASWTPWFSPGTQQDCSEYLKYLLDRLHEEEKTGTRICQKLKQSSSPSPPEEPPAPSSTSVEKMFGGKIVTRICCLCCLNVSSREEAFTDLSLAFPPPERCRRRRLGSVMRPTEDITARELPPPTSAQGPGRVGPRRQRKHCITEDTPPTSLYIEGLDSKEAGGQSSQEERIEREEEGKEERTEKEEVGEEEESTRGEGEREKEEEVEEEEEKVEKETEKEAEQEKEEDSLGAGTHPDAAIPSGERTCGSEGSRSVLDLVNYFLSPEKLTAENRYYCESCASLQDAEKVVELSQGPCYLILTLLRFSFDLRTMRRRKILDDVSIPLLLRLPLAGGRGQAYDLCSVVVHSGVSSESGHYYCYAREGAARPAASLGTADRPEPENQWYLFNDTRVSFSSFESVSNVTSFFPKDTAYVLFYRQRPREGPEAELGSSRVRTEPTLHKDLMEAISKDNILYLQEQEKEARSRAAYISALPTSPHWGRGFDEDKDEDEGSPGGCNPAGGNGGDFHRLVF", "UniProt Q9UHB4": "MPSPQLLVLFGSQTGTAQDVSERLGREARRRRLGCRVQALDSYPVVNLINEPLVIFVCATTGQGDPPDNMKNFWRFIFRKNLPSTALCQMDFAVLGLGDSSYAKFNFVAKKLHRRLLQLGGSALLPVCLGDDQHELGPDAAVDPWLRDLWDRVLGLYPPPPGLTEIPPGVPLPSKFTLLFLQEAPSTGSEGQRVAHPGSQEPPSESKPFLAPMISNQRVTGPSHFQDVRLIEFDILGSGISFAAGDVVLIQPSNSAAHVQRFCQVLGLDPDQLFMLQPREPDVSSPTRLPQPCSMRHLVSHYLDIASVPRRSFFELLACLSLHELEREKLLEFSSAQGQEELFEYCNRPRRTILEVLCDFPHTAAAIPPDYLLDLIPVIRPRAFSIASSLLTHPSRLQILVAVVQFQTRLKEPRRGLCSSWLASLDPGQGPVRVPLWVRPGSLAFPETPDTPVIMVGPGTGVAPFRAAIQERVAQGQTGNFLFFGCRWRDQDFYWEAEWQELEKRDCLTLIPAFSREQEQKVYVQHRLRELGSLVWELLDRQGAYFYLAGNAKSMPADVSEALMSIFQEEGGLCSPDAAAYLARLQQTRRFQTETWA", "UniProt Q9NZJ0": "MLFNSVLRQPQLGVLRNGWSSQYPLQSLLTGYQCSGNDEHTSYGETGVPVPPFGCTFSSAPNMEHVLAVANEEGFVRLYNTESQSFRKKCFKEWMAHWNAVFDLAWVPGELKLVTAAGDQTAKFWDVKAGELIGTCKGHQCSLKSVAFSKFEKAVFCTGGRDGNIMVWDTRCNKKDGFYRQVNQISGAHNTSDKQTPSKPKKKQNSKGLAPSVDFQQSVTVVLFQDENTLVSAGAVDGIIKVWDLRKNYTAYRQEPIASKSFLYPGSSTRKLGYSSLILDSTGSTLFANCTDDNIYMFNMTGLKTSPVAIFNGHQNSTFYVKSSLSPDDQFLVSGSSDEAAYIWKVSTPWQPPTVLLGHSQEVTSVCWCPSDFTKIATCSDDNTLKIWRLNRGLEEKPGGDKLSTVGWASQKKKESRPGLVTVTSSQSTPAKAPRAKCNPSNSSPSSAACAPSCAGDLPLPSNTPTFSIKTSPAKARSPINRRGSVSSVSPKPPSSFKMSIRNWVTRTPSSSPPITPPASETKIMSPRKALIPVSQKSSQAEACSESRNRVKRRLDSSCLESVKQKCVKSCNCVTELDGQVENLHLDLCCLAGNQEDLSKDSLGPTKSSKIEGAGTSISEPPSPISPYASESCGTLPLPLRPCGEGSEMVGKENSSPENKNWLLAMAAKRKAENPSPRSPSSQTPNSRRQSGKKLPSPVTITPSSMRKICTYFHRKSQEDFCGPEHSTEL", "UniProt Q9UDW3": "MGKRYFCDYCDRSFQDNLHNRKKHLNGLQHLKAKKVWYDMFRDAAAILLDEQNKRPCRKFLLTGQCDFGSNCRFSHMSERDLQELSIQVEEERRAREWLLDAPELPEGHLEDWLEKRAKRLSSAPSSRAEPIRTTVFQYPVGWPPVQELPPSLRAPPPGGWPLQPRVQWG", "UniProt Q9NZD8": "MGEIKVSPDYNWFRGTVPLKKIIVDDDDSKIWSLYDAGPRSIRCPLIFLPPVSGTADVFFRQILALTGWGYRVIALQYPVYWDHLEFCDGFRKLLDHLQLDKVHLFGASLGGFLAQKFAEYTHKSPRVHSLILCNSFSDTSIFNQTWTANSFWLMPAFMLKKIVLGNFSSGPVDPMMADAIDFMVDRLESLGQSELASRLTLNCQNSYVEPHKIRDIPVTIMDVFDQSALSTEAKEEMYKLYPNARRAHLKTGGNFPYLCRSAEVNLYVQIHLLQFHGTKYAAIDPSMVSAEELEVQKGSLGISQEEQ", "UniProt Q9P2R7": "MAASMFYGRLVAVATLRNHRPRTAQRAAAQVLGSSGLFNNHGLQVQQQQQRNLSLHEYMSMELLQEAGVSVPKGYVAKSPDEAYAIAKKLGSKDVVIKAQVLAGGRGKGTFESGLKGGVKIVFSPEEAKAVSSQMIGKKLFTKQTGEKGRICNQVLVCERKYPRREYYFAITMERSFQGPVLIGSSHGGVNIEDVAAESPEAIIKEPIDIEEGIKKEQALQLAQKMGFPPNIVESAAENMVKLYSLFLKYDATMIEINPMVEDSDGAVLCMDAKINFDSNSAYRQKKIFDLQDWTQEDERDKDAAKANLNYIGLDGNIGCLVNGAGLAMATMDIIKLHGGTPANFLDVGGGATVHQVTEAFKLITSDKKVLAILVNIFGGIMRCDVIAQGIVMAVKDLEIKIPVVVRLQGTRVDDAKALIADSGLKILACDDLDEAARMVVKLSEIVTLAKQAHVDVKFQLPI", "UniProt Q9NYB0": "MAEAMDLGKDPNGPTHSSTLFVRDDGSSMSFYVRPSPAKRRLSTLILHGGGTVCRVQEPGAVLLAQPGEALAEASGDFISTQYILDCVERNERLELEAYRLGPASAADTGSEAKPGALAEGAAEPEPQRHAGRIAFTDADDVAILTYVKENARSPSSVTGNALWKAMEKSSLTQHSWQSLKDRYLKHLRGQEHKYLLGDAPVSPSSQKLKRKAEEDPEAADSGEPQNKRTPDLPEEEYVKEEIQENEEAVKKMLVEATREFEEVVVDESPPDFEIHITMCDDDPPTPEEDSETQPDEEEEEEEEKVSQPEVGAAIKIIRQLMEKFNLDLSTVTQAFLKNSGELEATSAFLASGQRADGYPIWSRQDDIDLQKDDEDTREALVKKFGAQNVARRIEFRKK", "UniProt Q9UBW7": "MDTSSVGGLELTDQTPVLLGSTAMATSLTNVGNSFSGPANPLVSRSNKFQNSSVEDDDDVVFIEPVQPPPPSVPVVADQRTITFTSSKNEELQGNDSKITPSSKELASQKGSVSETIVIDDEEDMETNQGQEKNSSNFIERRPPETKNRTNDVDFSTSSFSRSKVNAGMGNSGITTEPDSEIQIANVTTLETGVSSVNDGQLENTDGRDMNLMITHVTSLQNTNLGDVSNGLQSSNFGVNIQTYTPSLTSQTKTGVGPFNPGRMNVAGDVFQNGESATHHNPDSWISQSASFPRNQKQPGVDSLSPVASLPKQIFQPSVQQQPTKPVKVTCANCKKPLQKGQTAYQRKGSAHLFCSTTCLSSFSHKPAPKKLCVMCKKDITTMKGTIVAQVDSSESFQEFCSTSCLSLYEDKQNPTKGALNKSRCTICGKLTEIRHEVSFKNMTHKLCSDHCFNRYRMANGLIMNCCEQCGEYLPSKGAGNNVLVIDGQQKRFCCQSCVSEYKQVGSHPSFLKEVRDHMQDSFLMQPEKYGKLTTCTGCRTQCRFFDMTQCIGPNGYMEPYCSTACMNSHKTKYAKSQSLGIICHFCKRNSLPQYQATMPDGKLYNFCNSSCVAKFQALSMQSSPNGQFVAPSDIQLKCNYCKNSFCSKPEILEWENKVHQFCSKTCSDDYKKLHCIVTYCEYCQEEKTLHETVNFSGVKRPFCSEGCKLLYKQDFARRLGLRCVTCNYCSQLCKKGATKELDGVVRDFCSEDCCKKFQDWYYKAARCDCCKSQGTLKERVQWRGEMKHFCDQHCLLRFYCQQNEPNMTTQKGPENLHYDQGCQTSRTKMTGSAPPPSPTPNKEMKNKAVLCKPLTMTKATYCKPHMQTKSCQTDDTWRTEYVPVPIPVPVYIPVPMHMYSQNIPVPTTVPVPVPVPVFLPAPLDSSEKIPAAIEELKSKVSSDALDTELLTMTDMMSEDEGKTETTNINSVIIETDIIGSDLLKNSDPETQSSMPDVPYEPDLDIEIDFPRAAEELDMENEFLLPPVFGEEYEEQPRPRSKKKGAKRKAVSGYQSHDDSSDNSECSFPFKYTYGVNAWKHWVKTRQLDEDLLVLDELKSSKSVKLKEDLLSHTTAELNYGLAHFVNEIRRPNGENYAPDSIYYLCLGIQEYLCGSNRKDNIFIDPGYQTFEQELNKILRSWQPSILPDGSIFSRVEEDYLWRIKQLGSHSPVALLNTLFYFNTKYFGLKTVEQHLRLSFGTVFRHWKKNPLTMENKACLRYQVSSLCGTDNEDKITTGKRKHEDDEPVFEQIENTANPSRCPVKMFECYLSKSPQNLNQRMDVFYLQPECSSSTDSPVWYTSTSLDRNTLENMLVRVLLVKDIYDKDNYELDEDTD", "UniProt Q9NXL9": "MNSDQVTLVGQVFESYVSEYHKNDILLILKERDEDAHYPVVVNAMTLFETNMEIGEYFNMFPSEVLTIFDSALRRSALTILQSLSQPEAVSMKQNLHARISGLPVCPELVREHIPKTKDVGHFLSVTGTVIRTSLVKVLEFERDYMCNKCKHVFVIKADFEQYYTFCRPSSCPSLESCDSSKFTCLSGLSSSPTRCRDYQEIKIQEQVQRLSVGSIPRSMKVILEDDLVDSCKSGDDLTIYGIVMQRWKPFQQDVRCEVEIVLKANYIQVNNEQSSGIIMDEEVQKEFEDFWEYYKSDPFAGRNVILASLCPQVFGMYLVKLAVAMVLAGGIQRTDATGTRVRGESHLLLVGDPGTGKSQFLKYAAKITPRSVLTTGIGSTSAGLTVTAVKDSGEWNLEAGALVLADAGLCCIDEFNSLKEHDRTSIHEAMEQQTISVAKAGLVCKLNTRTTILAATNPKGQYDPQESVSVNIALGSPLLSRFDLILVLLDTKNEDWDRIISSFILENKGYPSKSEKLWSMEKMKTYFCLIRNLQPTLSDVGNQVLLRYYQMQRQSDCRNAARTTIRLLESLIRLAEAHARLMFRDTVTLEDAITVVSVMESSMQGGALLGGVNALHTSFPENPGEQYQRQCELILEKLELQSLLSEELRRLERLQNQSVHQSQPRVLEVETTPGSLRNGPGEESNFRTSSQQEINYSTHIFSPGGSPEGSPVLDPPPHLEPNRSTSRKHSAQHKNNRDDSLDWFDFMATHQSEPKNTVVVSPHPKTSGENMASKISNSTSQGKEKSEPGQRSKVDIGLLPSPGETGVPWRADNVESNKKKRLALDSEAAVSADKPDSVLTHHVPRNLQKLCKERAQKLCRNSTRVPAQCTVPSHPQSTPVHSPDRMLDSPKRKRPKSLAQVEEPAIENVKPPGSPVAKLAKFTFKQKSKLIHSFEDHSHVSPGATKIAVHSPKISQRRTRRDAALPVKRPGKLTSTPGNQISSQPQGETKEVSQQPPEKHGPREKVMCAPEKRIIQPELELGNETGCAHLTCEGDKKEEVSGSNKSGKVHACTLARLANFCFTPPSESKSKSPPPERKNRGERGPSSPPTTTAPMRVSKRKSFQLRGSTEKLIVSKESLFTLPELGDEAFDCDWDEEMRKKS"}, "source": "the supplement of paper PMC12819154", "about": "“High-throughput peptide-centric local stability assay extends protein–ligand identification to membrane proteins, tissues and bacteria” (Nature Structural & Molecular Biology, 2025)", "note": "This is one part of the list. Most entries show no effect beyond the scatter of the controls."}
{"compound": "Cc1nc(Nc2ncc(C(=O)Nc3c(C)cccc3Cl)s2)cc(N2CCN(CCO)CC2)n1 [dasatinib]", "experiment": "log2 fold change of tryptic peptide abundance, ligand vs vehicle (limited proteolysis) (log2 ratio); higher = more trypsin-susceptible (destabilized)", "conditions": "ligand concentration: 5 uM; sample: K562 cleared lysate"}
{"target": "USP36 (peptide sequence: AVSPAPQSSSR, peptide start residue: 740) (UniProt Q9P275)", "log2 fold change": 0.393}
{"target": "UniProt Q9NX55 (peptide sequence: KEDLELIMTEMEISR, peptide start residue: 84)", "log2 fold change": 0.0727}
{"target": "GSKIP (peptide sequence: YCLELTEAGLK, peptide start residue: 76) (UniProt Q9P0R6)", "log2 fold change": 0.0528}
{"target": "MAGEC2 (peptide sequence: EHFVYGEPR, peptide start residue: 263) (UniProt Q9UBF1)", "log2 fold change": -0.124}
{"target": "UniProt Q9P260 (peptide sequence: GMSEALVDKR, peptide start residue: 994)", "log2 fold change": -1.1}
{"target": "MLX (peptide sequence: KKQEEEVSTLR, peptide start residue: 192) (UniProt Q9UH92)", "log2 fold change": -0.395}
{"target": "VPS29 (peptide sequence: VVTVGQFK, peptide start residue: 74) (UniProt Q9UBQ0)", "log2 fold change": 0.201}
{"target": "UniProt Q9P2H5 (peptide sequence: AAYISALPTSPHWGR, peptide start residue: 973)", "log2 fold change": 0.253}
{"target": "ETAA1 (peptide sequence: QIYTTDSDEISHIVNR, peptide start residue: 124) (UniProt Q9NY74)", "log2 fold change": -0.412}
{"target": "RAI14 (peptide sequence: EVEVAKLEK, peptide start residue: 762) (UniProt Q9P0K7)", "log2 fold change": 0.36}
{"target": "HMGXB4 (peptide sequence: AITSPLAAGSKPSKK, peptide start residue: 115) (UniProt Q9UGU5)", "log2 fold change": -0.0825}
{"target": "EPS15L1 (peptide sequence: ALEKEPVPSALPPSLIPPSKR, peptide start residue: 194) (UniProt Q9UBC2)", "log2 fold change": 0.628}
{"target": "IGF2BP1 (peptide sequence: TADEVPLK, peptide start residue: 273) (UniProt Q9NZI8)", "log2 fold change": 0.0932}
{"target": "VPS18 (peptide sequence: ACVHVYK, peptide start residue: 712) (UniProt Q9P253)", "log2 fold change": 0.277}
{"target": "SRP68 (peptide sequence: DAIQVVREELKPDQK, peptide start residue: 346) (UniProt Q9UHB9)", "log2 fold change": -0.141}
{"target": "NDOR1 (peptide sequence: EPDVSSPTRLPQPCSMR, peptide start residue: 280) (UniProt Q9UHB4)", "log2 fold change": -0.648}
{"target": "OGFR (peptide sequence: SSQEIQER, peptide start residue: 159) (UniProt Q9NZT2)", "log2 fold change": 0.313}
{"target": "UniProt Q9P278 (peptide sequence: EQLPKYQYTR, peptide start residue: 121)", "log2 fold change": -0.319}
{"target": "DTL (peptide sequence: MLFNSVLR, peptide start residue: 1) (UniProt Q9NZJ0)", "log2 fold change": 0.295}
{"target": "ZMAT5 (peptide sequence: DLQELSIQVEEERR, peptide start residue: 81) (UniProt Q9UDW3)", "log2 fold change": 0.388}
{"target": "TUBA8 (peptide sequence: QLFHPEQLITGKEDAANNYAR, peptide start residue: 85) (UniProt Q9NY65)", "log2 fold change": 0.0857}
{"target": "HDAC6 (peptide sequence: LVDAVLGAEIR, peptide start residue: 194) (UniProt Q9UBN7)", "log2 fold change": 0.256}
{"target": "UniProt Q9NZQ0 (peptide sequence: MEANMPKR, peptide start residue: 1)", "log2 fold change": 1.62}
{"target": "CNOT8 (peptide sequence: QHQAGSDSLLTGMAFFR, peptide start residue: 224) (UniProt Q9UFF9)", "log2 fold change": 0.161}
{"target": "SPG21 (peptide sequence: LTLNCQNSYVEPHKIR, peptide start residue: 200) (UniProt Q9NZD8)", "log2 fold change": 0.747}
{"target": "GMIP (peptide sequence: VTLSLFGLR, peptide start residue: 310) (UniProt Q9P107)", "log2 fold change": -0.413}
{"target": "SUCLA2 (peptide sequence: GKGTFESGLKGGVK, peptide start residue: 107) (UniProt Q9P2R7)", "log2 fold change": 0.402}
{"target": "CPNE7 (peptide sequence: FSALGFGAR, peptide start residue: 433) (UniProt Q9UBL6)", "log2 fold change": -0.287}
{"target": "UniProt Q9UBS0 (peptide sequence: LALPPYLTPDAR, peptide start residue: 286)", "log2 fold change": -0.0766}
{"target": "UniProt Q9NYJ8 (peptide sequence: NMSGQVSMGPAFIHHHPPK, peptide start residue: 421)", "log2 fold change": 0.191}
{"target": "TERF2IP (peptide sequence: DDGSSMSFYVRPSPAKR, peptide start residue: 24) (UniProt Q9NYB0)", "log2 fold change": 0.475}
{"target": "SIRT5 (peptide sequence: RVVVITQNIDELHR, peptide start residue: 134) (UniProt Q9NXA8)", "log2 fold change": -0.368}
{"target": "COQ3 (peptide sequence: SFDPVLDKR, peptide start residue: 189) (UniProt Q9NZJ6)", "log2 fold change": 0.168}
{"target": "BCLAF1 (peptide sequence: SIFDHIKLPQASK, peptide start residue: 587) (UniProt Q9NYF8)", "log2 fold change": -0.291}
{"target": "RCC2 (peptide sequence: IEYDCELVPR, peptide start residue: 301) (UniProt Q9P258)", "log2 fold change": 0.875}
{"target": "ZMYM2 (peptide sequence: NTLENMLVR, peptide start residue: 1349) (UniProt Q9UBW7)", "log2 fold change": 0.135}
{"target": "MCM9 (peptide sequence: NGPGEESNFR, peptide start residue: 679) (UniProt Q9NXL9)", "log2 fold change": -0.289}
{"target": "RRBP1 (peptide sequence: TESASVQGR, peptide start residue: 600) (UniProt Q9P2E9)", "log2 fold change": -0.817}
